Structures were worked out from names or drawings and are uncertain.
Biological target: oxytocin receptor (Rattus norvegicus, UniProt P70536)
Assay: Oxytocin receptor binding assay ([3H]-oxytocin, rat uterine membrane sample)
Conditions: [3H]-oxytocin 0.5 nM, room temperature, 60 minutes

Chains of the proteins cited; added tags and fusions are not shown.
UniProt P70536, whole entry: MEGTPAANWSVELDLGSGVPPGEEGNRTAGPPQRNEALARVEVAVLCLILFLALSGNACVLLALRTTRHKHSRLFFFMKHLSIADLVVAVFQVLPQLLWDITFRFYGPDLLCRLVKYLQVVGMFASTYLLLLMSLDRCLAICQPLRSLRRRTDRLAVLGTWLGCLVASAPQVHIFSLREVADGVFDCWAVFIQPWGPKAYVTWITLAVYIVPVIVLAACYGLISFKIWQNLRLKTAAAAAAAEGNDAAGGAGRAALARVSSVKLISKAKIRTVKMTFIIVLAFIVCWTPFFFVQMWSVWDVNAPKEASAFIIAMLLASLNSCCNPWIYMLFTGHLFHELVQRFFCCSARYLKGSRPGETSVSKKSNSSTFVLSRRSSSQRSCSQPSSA

O=C1CCN(C(=O)/C=C2/c3ccccc3N(C(=O)c3ncn(-c4ccccc4)c3C(F)(F)F)CCC2(F)F)CC1
pKi (negative logarithmic value of Ki) in the oxytocin receptor binding test: 8.87

Source: patent US6340678B1, “4,4-difluoro-2,3,4,5-tetrahydro-1H-1-benzoazepine derivatives and drug compositions containing them” (Yamanouchi Pharmaceutical Co., Ltd., priority 1997, dated 2002)
